In PubChem BioAssay AID190 (DTP/NCI, 2004):
The list shows only some results of the screen, not a fair sample: it gathers tests that were run many times, whatever their T/C, doses with no T/C, and many T/C values between a quarter and a half above the control. Further doses and runs are listed elsewhere. T/C gives the treated animals as a percentage of the vehicle group. Some doses have a count of surviving animals in place of a T/C: the source holds a T/C of zero for them, seemingly a mark for toxic or unscored doses. Some survivor counts are full or nearly so, which does not show that the dose was tolerated: survival well below the control is almost never listed, so the zero probably covers shortened survival too. Counts of survivors are from the toxicity check (mostly the fifth day) where no day follows; animals may have died later. Schedules are NCI's codes, read here as Q, the interval in days (D) or hours (H), X, the number of doses. Some doses were run more than once; the values are given in rising order. Where survival is the endpoint, this PubChem deposit counts one and a half times the control or more as active, and values a quarter to a half above the control carry no call in these data; other NCI protocols may use other cut-offs. Some T/C values carry the count of animals alive at the toxicity check (mostly the fifth day); without a count, all were alive then.

Tested on: AKR/Lw mice, AKR lymphoma ip, median survival T/C
Assay: NCI In Vivo Anticancer Drug Screen. Data for tumor model Lymphoma AKR (Transplanted) (intraperitoneal) in AKR/Lw mice
Conditions: T/C endpoint: median survival time, higher T/C = longer survival
Experimental: The antitumor activity of compounds was measured in mice bearing transplantable tumors. Survival or tumor size were measured and the results are expressed as the measurement made in the treated group (T) divided by the measurement made in the vehicle treated control group (C). The tumor model used in this assay is Lymphoma AKR (Transplanted) (intraperitoneal) in AKR/Lw mice

[1] = dose: 100.0 mg/kg/injection, schedule: Q01DX001 (ip), vehicle: saline
[2] = dose: 200.0 mg/kg/injection, schedule: Q01DX001 (ip), vehicle: saline
[3] = dose: 200.0 mg/kg/injection, schedule: Q01DX001 (ip), vehicle: Klucel (hydroxypropylcellulose) (HPC)
[4] = dose: 40.0 mg/kg/injection, schedule: Q01DX001 (ip), vehicle: saline
[5] = dose: 40.0 mg/kg/injection, schedule: Q04DX003 (ip), vehicle: saline
[6] = dose: 80.0 mg/kg/injection, schedule: Q04DX003 (ip), vehicle: saline
[7] = dose: 400.0 mg/kg/injection, schedule: Q04DX003 (ip), vehicle: Klucel (hydroxypropylcellulose) (HPC)

In the case of `C[N+]1(C)Cc2ccccc2-c2ccccc2C1`, the survivor count [1] is reported as 1 of 10 and the survivor count [2] is reported as 4 of 10.

With `CC(=O)OCC(=O)[C@@]1(O)CC[C@H]2[C@@H]3C[C@H](F)C4=CC(=O)CC[C@]4(C)[C@H]3C(=O)C[C@@]21C` the survivor count (dose: 100.0 mg/kg/injection, schedule: Q04DX003 (ip), vehicle: saline with Tween-80) was 10 of 10, the survivor count (dose: 200.0 mg/kg/injection, schedule: Q04DX003 (ip), vehicle: saline with Tween-80) was 9 of 10 and the survivor count (dose: 400.0 mg/kg/injection, schedule: Q01DX001 (ip), vehicle: saline with Tween-80) was 9 of 10.

In the case of `COc1ccc(CCNC(=S)NCCc2ccc(OC)c(OC)c2)cc1OC`, the survivor count [3] is reported as 10 of 10.

In the case of `CC[C@](O)(C(=O)O)c1cc2n(c(=O)c1CO)Cc1cc3ccccc3nc1-2`, the survivor count (dose: 0.02 mg/kg/injection, schedule: Q01DX005 (ip), vehicle: saline) is reported as 4 of 10, the survivor count (dose: 0.05 mg/kg/injection, schedule: Q01DX005 (ip), vehicle: saline) is reported as 3 of 10 and the survivor count (dose: 0.1 mg/kg/injection, schedule: Q01DX005 (ip), vehicle: saline) is reported as 5 of 10. The T/C (dose: 0.12 mg/kg/injection, schedule: Q01DX009 (ip), vehicle: saline) was 127 % of control, the T/C (dose: 0.25 mg/kg/injection, schedule: Q01DX009 (ip), vehicle: saline) was 112 [9 of 10 alive], 113, 113 [9 of 10 alive], 129 [9 of 10 alive], 141 % of control and the T/C (dose: 0.5 mg/kg/injection, schedule: Q01DX009 (ip), vehicle: saline) was 93, 93 [9 of 10 alive], 97, 122 % of control [9 of 10 alive]. For the same compound, the survivor count (dose: 1.0 mg/kg/injection, schedule: Q01DX009 (ip), vehicle: saline) was 6 of 10 and 10 of 10, the survivor count (dose: 1.5 mg/kg/injection, schedule: Q01DX009 (ip), vehicle: saline) was 9 of 10 and 10 of 10 and the survivor count (dose: 2.0 mg/kg/injection, schedule: Q01DX009 (ip), vehicle: saline) was 8 of 10. For the same compound, the T/C (dose: 2.5 mg/kg/injection, schedule: Q04DX003 (ip), vehicle: saline) was 92, 102, 104 [9 of 10 alive], 122 % of control, the survivor count (dose: 3.0 mg/kg/injection, schedule: Q01DX009 (ip), vehicle: saline) was 10 of 10 and the survivor count (dose: 4.0 mg/kg/injection, schedule: Q01DX009 (ip), vehicle: saline) was 8 of 10. The survivor count (dose: 5.0 mg/kg/injection, schedule: Q01DX009 (ip), vehicle: saline) was 9 of 10 and 10 of 10, the T/C (dose: 5.0 mg/kg/injection, schedule: Q04DX003 (ip), vehicle: saline, evaluated on day 45) was 120 % of control and the T/C (dose: 5.0 mg/kg/injection, schedule: Q04DX003 (ip), vehicle: saline, evaluated on day 60) was 97, 102 [9 of 10 alive], 107, 122, 130 % of control. The survivor count (dose: 5.0 mg/kg/injection, schedule: Q04DX003 (ip), vehicle: saline) was 10 of 10, the survivor count (dose: 6.0 mg/kg/injection, schedule: Q01DX009 (ip), vehicle: saline) was 10 of 10 and the survivor count (dose: 7.5 mg/kg/injection, schedule: Q01DX009 (ip), vehicle: saline) was 10 of 10. The T/C (dose: 7.5 mg/kg/injection, schedule: Q04DX003 (ip), vehicle: saline) was 125 and 138 % of control, the T/C (dose: 10.0 mg/kg/injection, schedule: Q01DX001 (ip), vehicle: saline) was 104, 107, 113, 113 [9 of 10 alive], 118 % of control and the survivor count (dose: 10.0 mg/kg/injection, schedule: Q01DX009 (ip), vehicle: saline) was 9 of 10 and 10 of 10. The T/C (dose: 10.0 mg/kg/injection, schedule: Q04DX003 (ip), vehicle: saline, evaluated on day 45) was 125 % of control, the T/C (dose: 10.0 mg/kg/injection, schedule: Q04DX003 (ip), vehicle: saline, evaluated on day 60) was 86, 97, 102, 104, 105, 125, 133 % of control and the survivor count (dose: 10.0 mg/kg/injection, schedule: Q04DX003 (ip), vehicle: saline) was 9 of 10. The survivor count (dose: 15.0 mg/kg/injection, schedule: Q01DX009 (ip), vehicle: saline) was 9 of 10, the survivor count (dose: 15.0 mg/kg/injection, schedule: Q04DX003 (ip), vehicle: saline) was 7 of 10 and 9 of 10 and the T/C (dose: 20.0 mg/kg/injection, schedule: Q01DX001 (ip), vehicle: saline) was 113, 116, 116 [8 of 10 alive], 118 % of control. The T/C (dose: 20.0 mg/kg/injection, schedule: Q04DX003 (ip), vehicle: saline, evaluated on day 45) was 136 % of control, the T/C (dose: 20.0 mg/kg/injection, schedule: Q04DX003 (ip), vehicle: saline, evaluated on day 60) was 100, 108, 122 % of control and the survivor count (dose: 20.0 mg/kg/injection, schedule: Q04DX003 (ip), vehicle: saline) was 5 of 10, 7 of 10, 8 of 10, 9 of 10, 10 of 10. The T/C (dose: 25.0 mg/kg/injection, schedule: Q01DX001 (ip), vehicle: saline) was 125 [9 of 10 alive] and 141 % of control [9 of 10 alive], the survivor count (dose: 30.0 mg/kg/injection, schedule: Q01DX009 (ip), vehicle: saline) was 10 of 10 and the survivor count (dose: 37.5 mg/kg/injection, schedule: Q01DX001 (ip), vehicle: saline) was 10 of 10. For the same compound, the T/C [4] was 136 % of control [9 of 10 alive], the survivor count [4] was 4 of 10 and the T/C [5] was 91 and 125 % of control. The survivor count [5] was 4 of 10 and 8 of 10, the survivor count (dose: 50.0 mg/kg/injection, schedule: Q01DX001 (ip), vehicle: saline) was 5 of 10 and 6 of 10 and the survivor count (dose: 60.0 mg/kg/injection, schedule: Q04DX003 (ip), vehicle: saline) was 8 of 10. The survivor count (dose: 75.0 mg/kg/injection, schedule: Q01DX001 (ip), vehicle: saline) was 5 of 10, the T/C [6] was 86 and 125 % of control and the survivor count [6] was 1 of 10 and 6 of 10. The survivor count [1] was 5 of 10 and 7 of 10, the survivor count (dose: 150.0 mg/kg/injection, schedule: Q01DX001 (ip), vehicle: saline) was 5 of 10 and the survivor count [2] was 0 of 10.

With `c1cc2cc3c(cc2c2c1CC1c4cc5c(cc4CCN1C2)OCO5)OCO3` (stereo not given) the survivor count (dose: 400.0 mg/kg/injection, schedule: Q01DX001 (ip), vehicle: Klucel (hydroxypropylcellulose) (HPC)) was 10 of 10.

`CN(CCOc1ccccc1O)CCOc1ccccc1O` was tested, and the survivor count [7] was 8 of 10.

With `S=c1[nH]nc(NC2CCCCC2)s1` the survivor count [7] was 9 of 10.

`Cc1cccc(C)c1NC(=S)N(C)C` was tested, and the survivor count (dose: 12.5 mg/kg/injection, schedule: Q04DX003 (ip), vehicle: Klucel (hydroxypropylcellulose) (HPC)) was 10 of 10, the survivor count (dose: 25.0 mg/kg/injection, schedule: Q04DX003 (ip), vehicle: Klucel (hydroxypropylcellulose) (HPC)) was 10 of 10 and the survivor count (dose: 50.0 mg/kg/injection, schedule: Q04DX003 (ip), vehicle: Klucel (hydroxypropylcellulose) (HPC)) was 10 of 10. For the same compound, the survivor count (dose: 100.0 mg/kg/injection, schedule: Q04DX003 (ip), vehicle: Klucel (hydroxypropylcellulose) (HPC)) was 8 of 10 and the survivor count [3] was 2 of 10.

In the case of `CC(=O)N1C(=O)/C(=C\c2cc3c(cc2Br)OCO3)c2cc3c(cc21)OCO3`, the T/C (dose: 24.0 mg/kg/injection, schedule: Q01DX001 (ip), vehicle: water) is reported as 141 % of control, the T/C (dose: 48.0 mg/kg/injection, schedule: Q01DX001 (ip), vehicle: water) is reported as 145 % of control and the survivor count (dose: 96.0 mg/kg/injection, schedule: Q01DX001 (ip), vehicle: water) is reported as 8 of 10.

With `CN(C)c1nc(N(C)C)nc(N(C)C)n1` the survivor count (dose: 320.0 mg/kg/injection, schedule: Q04DX003 (ip), vehicle: Klucel (hydroxypropylcellulose) (HPC)) was 10 of 10, the survivor count (dose: 640.0 mg/kg/injection, schedule: Q04DX003 (ip), vehicle: Klucel (hydroxypropylcellulose) (HPC)) was 10 of 10 and the survivor count (dose: 1280.0 mg/kg/injection, schedule: Q04DX003 (ip), vehicle: Klucel (hydroxypropylcellulose) (HPC)) was 9 of 10.
